PubChem BioAssay AID504774 – Drosophila RNAi Screening Center | 2011
Assay: 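Knock-downs that shift viability of MMS-exposed cells relative to untreated ones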 (primary screen). System: Drosophila Kc167 cells. Reagent: long dsRNA against Drosophila genes, about 0.25 µg dsRNA per well. Time to read-out: about 6 days: 3 days knock-down, then 3 days with or without MMS. Conditions: methyl methanesulphonate 0.004% (w/v) for 3 days after knock-down. Measured: 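ATP-dependent luminescence as a measure of live cells in MMS-exposed wells, quantile normalised within each plate, with replicate values also given as a mean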. Direction: mean viability with MMS: higher = more surviving cells after MMS.
The deposit covers about 23,000 reagents; this is an unselected part of those with a known target gene and a result. 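Values are quantile-normalised luminescence on an arbitrary scale; higher means more cells surviving MMS.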 Names joined by + are all predicted targets of the reagent. Not all columns of the deposit are shown. No sequences are given here.

gene knocked down	dsRNA	mean viability with MMS
CG16799 (GeneID 37340)	DRSC06626	3.63e6
CG16799 (GeneID 37340)	DRSC21553	3.59e6
Sod1 (GeneID 39251)	DRSC11286	3.70e6
AANATL5 (GeneID 37210)	DRSC05994	3.57e6
Pi3K21B (GeneID 33203)	DRSC00771	3.45e6
CG14298 (GeneID 42259)	DRSC14777	3.55e6
CheB93b (GeneID 318736)	DRSC21762	3.46e6
CG18596 (GeneID 42622)	DRSC15355	3.44e6
CG5731 (GeneID 34355)	DRSC02883	3.68e6
CG31391 (GeneID 41280)	DRSC16047	3.61e6
CG42374 + Mettl5	DRSC11085	3.62e6
Mpi (GeneID 41192)	DRSC16417	3.54e6
AQP (GeneID 36456)	DRSC06122	3.54e6
ndl (GeneID 38738)	DRSC11374	3.52e6
Neurochondrin (GeneID 40796)	DRSC12580	3.60e6
Fbp2 (GeneID 34259)	DRSC03327	3.79e6
CG15578 (GeneID 50379)	DRSC18066	3.50e6
CG15169 (GeneID 35161)	DRSC02470	3.77e6
bdg (GeneID 36747)	DRSC07136	3.71e6
CG14561 (GeneID 40447)	DRSC11722	3.55e6
asRNA:CR42547 + CG15674	DRSC04264	3.59e6
jdp (GeneID 43630)	DRSC16975	3.51e6
EDTP (GeneID 36959)	DRSC07409	3.67e6
tbrd-3 (GeneID 246604)	DRSC04295	3.40e6
CG14245 (GeneID 3772449)	DRSC14740	3.49e6
Chs2 (GeneID 40442)	DRSC11830	3.39e6
Ubc7 (GeneID 44054)	DRSC20299	3.50e6
CG4218 (GeneID 34848)	DRSC01939	3.58e6
Ote (GeneID 37090)	DRSC07498	3.61e6
glec (GeneID 42571)	DRSC16958	3.52e6
neo (GeneID 43523)	DRSC16316	3.62e6
yip2 (GeneID 34313)	DRSC03640	3.53e6
Pfdn4 (GeneID 38615)	DRSC09761	3.47e6
Map205 (GeneID 43765)	DRSC16732	3.36e6
Ser12 (GeneID 33406)	DRSC00786	3.42e6
RecQ5 (GeneID 39594)	DRSC11266	3.60e6
danr (GeneID 43020)	DRSC14651	3.51e6
dgrn (GeneID 40725)	DRSC12154	3.43e6
CG32074 (GeneID 317842)	DRSC22246	3.32e6
Cpr12A (GeneID 32309)	DRSC19722	3.63e6
Ugt49B2 (GeneID 42538)	DRSC16049	3.63e6
Nepl9 (GeneID 35020)	DRSC02255	3.51e6
Pex11c (GeneID 42751)	DRSC14677	3.62e6
a5 (GeneID 33317)	DRSC00798	3.55e6
CG5493 + CG5327	DRSC06938	3.71e6
gw (GeneID 43808)	DRSC17135	3.32e6
gw (GeneID 43808)	DRSC17160	3.23e6

Ordered by “mean viability with MMS” (highest first): some entries from above.
gene knocked down	dsRNA	mean viability with MMS
RecQ5 (GeneID 39594)	DRSC11266	3.60e6
danr (GeneID 43020)	DRSC14651	3.51e6
dgrn (GeneID 40725)	DRSC12154	3.43e6
